Each structure is given as a SMILES string. Out of some 1,300 compounds screened, about 65 (5%) were called active.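 The calls were made as follows: active = growth inhibition reaching a set limit at one or more tested doses; inactive = the rest.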 This is one part of the list. Entries with a potency or affinity are not part of this list.

This assay is described as follows: wild-type E. coli BW25113 antibacterial activity – OD615, dose response (AID 638). The conditions noted are these: at 100 µM (top of the series) unless noted. An outline of the steps: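 Assay system: E. coli BW25113 wild type; buffer or medium: Kanamycin-supplemented LB broth; signal: optical density (absorbance) at 615 nm; controls: chloramphenicol 30 µM control; doses: compound concentration series; times: bacterial exposure to compound 20 h at 37 °C; evaluation: IC50 from 4-parameter logistic, bounds fixed 0–100%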
For `Cn1ncc(C#N)c1/N=C/N(Cc1ccccc1)Cc1ccccc1`, the growth inhibition was inactive: -0.61%.
With `Cc1cc(N2CCC(C)CC2)nc(-n2nc(C)cc2C)n1`, the growth inhibition was inactive: -4.79%.
Consider `CC1=C(C(=O)OC2CCCCCC2)C(c2ccc(C)o2)C2=C(CCCC2=O)N1` (configuration not stated), for which the growth inhibition was inactive: -3.74%.
In the case of `Cc1ccc(Cl)cc1N1CCN(Cc2nnnn2Cc2ccco2)CC1`, the growth inhibition was inactive: -0.95%.
In the case of `O=C(Cc1ccccc1F)Nc1nc(-c2cccs2)cs1`, the growth inhibition is inactive: 13.6%.
As for `CCOC(=O)c1c(C)c(C(=O)Nc2cc(OC)ccc2OC)c(C)n1CC`, the figure is inactive: 5.14%; as for `CC1CCCN(S(=O)(=O)c2ccc(NC(=O)Cn3nnc(-c4ccccc4F)n3)cc2)C1` (configuration not stated), inactive: -14.7%.
`CC(C)(C)c1[nH]nc2c1C(Cc1ccccc1)C(C#N)=C(N)O2` (configuration not stated): the growth inhibition is inactive: 2.92%.
To `COc1ccc(CNc2nc3c(c(=O)n(Cc4ccc(F)cc4)c(=O)n3C)n2C)cc1` belongs inactive: 0.52%; to `Cc1ccc2[nH]c(=O)c(CN(Cc3nnnn3Cc3ccccc3)C3CCCC3)cc2c1`, inactive: 2.98%; to `CCOC(=O)C1CCN(Cc2cn[nH]c2-c2ccc(C)cc2)CC1`, inactive: 1.66%.
With `CCOc1cc(S(=O)(=O)n2cc(-c3ccc(F)cc3)c(N)n2)cc(OCC)c1OCC`, the growth inhibition is inactive: -4.64%.
As for `S=C(c1ccc(-c2ccc(Cl)c(Cl)c2)o1)N1CCOCC1`, the growth inhibition is inactive: 2.64%.
As to `c1ccc(-c2oc3ncnc(NCCCn4ccnc4)c3c2-c2ccccc2)cc1`, the growth inhibition is inactive: 6.48%.
As for `CCCCN(CCCC)C(=O)CSc1nnc(-c2cc(OC)c(OC)c(OC)c2)o1`, the figure is inactive: -2.21%.
Turning to `COc1ccc(OC)c(S(=O)(=O)N2CCN(c3c(C)cccc3C)CC2)c1`, the growth inhibition was inactive: -10%.
Turning to `Cc1ccccc1-c1nnc(SCc2ccccc2F)o1`, the growth inhibition was inactive: -0.89%.
`CCn1c(CNc2cccc(Cl)c2)nnc1SCC(=O)OC1CCCCC1`: the growth inhibition was inactive: 2.11%.
In the case of `CCc1ccc2oc(=O)cc(CN(C)Cc3ccccc3)c2c1`, the growth inhibition is inactive: 2.47%.
Take `Cc1ccc(C)c(N2CCN(C(=O)c3cc4sccc4n3C)CC2)c1`: the growth inhibition is inactive: -11%.
Consider `Cc1sc2nc(CN(Cc3cccs3)C(=O)NC3CCCCC3)[nH]c(=O)c2c1C`, for which the growth inhibition was inactive: -6.58%.
For the compound `Cc1ccc2nc(NC(=O)CNS(=O)(=O)c3ccc(Br)s3)sc2c1`, the growth inhibition was inactive: -4.36%.
Turning to `COc1cc(NS(=O)(=O)c2ccc(NC(=O)COc3ccccc3Cl)cc2)nc(OC)n1`, the growth inhibition is inactive: -15.9%.
On to `CCCc1cc(-c2[nH]ncc2-c2ccc3c(c2)OCCCO3)c(O)cc1O`, for which the growth inhibition is inactive: 9.95%.
For the compound `O=C(c1ccco1)N1CCN(c2ncnc3c2[nH]c2ccc(Br)cc23)CC1`, the growth inhibition was inactive: -11.1%.
Regarding `N#C/C(=C\c1ccc[nH]1)Sc1nc2ccccc2s1`, the growth inhibition is inactive: 17.3%.
As to `O=C(Nc1nnc(-c2ccccc2Cl)o1)c1cccnc1`, the growth inhibition is inactive: 0.28%.
Turning to `COC(=O)c1ccc(Oc2nc(N3CCCCC3)nc(N3CCOCC3)n2)cc1`, the growth inhibition was inactive: -2.18%.
Regarding `O=C(C1CCCCC1)N1CCC(c2nc3c(nnn3Cc3c(F)cccc3Cl)c(=O)[nH]2)CC1`, the growth inhibition is inactive: 9.36%.
As for `CCOC(=O)c1ccc(NC(=O)CCc2nc(-c3ccccc3Cl)no2)cc1`, the figure is inactive: 10.4%; as for `COc1cc(-c2nnc(-c3ccco3)o2)ccc1OCc1ccccc1`, inactive: -6.15%.
As for `O=C(Nc1nc2ccccc2n1CCOc1ccc(Cl)cc1)c1ccco1`, the figure is inactive: 3.35%; as for `Cc1ccc(Cn2ccc(NC(=O)c3cc(CC(C)C)on3)n2)cc1`, inactive: 0.62%.
To `Brc1cc(Br)c2ncnc(N3CCCCC3)c2c1` belongs inactive: 7.11%; to `Cc1ccc(S(=O)(=O)NCCSc2nnnn2-c2cc(C)ccc2C)cc1`, inactive: 5.61%.
Consider `O=C(Nc1ccc2oc(Cc3ccc(Cl)cc3)nc2c1)c1cccnc1`, for which the growth inhibition was inactive: 10.1%.
Consider `CCCOc1nc2c(c(=O)n(C)c(=O)n2C)n1Cc1cccc2ccccc12`, for which the growth inhibition was inactive: 1.29%.
As for `Cc1csc(SCC(=O)Nc2nc(-c3ccccc3)cs2)n1`, the figure is inactive: 3.26%; as for `CCCc1cc(C(=O)Nc2cccc(Cl)c2)no1`, inactive: 12.5%; as for `Cc1cc(-c2nnc3n2N=C(c2ccc(-c4ccccc4)cc2)CS3)n[nH]1`, inactive: 1.86%.
As for `CCc1nc(N2CCCCC2C)c2oc3ccccc3c2n1` (configuration not stated), the growth inhibition is inactive: 4.41%.
To `CCOc1cc(-c2c(C#N)c(=O)[nH]c3c2c(C)nn3-c2ccc(F)cc2)ccc1O` belongs inactive: -1.32%.
Take `CCOC(=O)Cc1nnc2c(Nc3ccccc3F)nc3nonc3n12`: the growth inhibition is inactive: -6.59%.
Turning to `CSc1nc(N2CCOCC2)c2c3c(sc2n1)CCCC3`, the growth inhibition is inactive: -3.25%.
For the compound `Fc1ccc(-c2cc(C(F)(F)F)nc(NCC3CCCO3)n2)cc1` (configuration not stated), the growth inhibition was inactive: -1.79%.
In the case of `COc1ccc(-c2cc(C(=O)N3CCCc4ccccc43)no2)cc1`, the growth inhibition is inactive: 5.16%.
As for `CCN(CCCNC(=O)c1[nH]c(C)c(C(C)=O)c1C)c1cccc(C)c1`, the figure is inactive: -6.46%; as for `Cn1c(C(=O)N2CCN(c3cccc(C(F)(F)F)c3)CC2)cc2sccc21`, inactive: 1.44%.
On to `CCOc1ccc(-c2nc(C#N)c(N3CCCCCC3)o2)cc1`, for which the growth inhibition is inactive: -6.33%.
Consider `Cc1cccc2cc(C(c3nnnn3CC3CCCO3)N3CCc4ccccc4C3)c(=O)[nH]c12` (configuration not stated), for which the growth inhibition was inactive: 7.76%.
Turning to `CCC1CCCCN1C(=O)c1cc(-c2ccc(Cl)c(Cl)c2)on1` (configuration not stated), the growth inhibition was inactive: 4.27%.
As for `CCOC(=O)c1cc2cc(-c3c(C(=O)OCC)oc4cc(O)cc(O)c4c3=O)ccc2o1`, the growth inhibition is inactive: 6.59%.
For the compound `Cc1ccc(-c2nnn(CC(=O)N(Cc3cccs3)C(C(=O)NC(C)(C)C)c3ccco3)n2)o1` (configuration not stated), the growth inhibition is inactive: -15.2%.
Turning to `Cc1nc2nc(-c3ccco3)[nH]n2c(=O)c1Cc1ccccc1`, the growth inhibition is inactive: 3.72%.
To `O=C(Nc1nc(-c2ccccc2)ns1)c1cccs1` belongs inactive: -6.42%.
In the case of `COc1ccc(C2(O)CC3CCC(C2)N3c2nc(C)cc(C)c2C#N)cc1` (configuration not stated), the growth inhibition was inactive: -2.64%.
For `CCCn1c(CNc2ccc(Br)cc2)nc2ccccc21`, the growth inhibition is inactive: 7.8%.
As for `COc1ccc(S(=O)(=O)N(Cc2cccs2)C2CCCC2)cc1`, the figure is inactive: -1.98%; as for `O=C(Nc1cccc2cccnc12)c1ccc(Br)o1`, inactive: 1.98%.
On to `Cc1nc(N2CCN(c3ccccc3)CC2)nc2c1C(=O)CCC2`, for which the growth inhibition is inactive: 4.77%.
For the compound `Cc1nn(-c2ccccc2)c2[nH]c(=O)c(CNCc3ccc4c(c3)OCO4)cc12`, the growth inhibition is inactive: 10.1%.
With `CCOC(=O)Cc1ccc(NS(=O)(=O)c2ccc(SC)cc2)cc1`, the growth inhibition was inactive: 2.46%.
As for `Cc1c(-c2nc(N)nc(Nc3ccccc3)n2)oc2ccccc12`, the growth inhibition was inactive: -6.98%.
For `Cc1onc(-c2c(F)cccc2Cl)c1C(=O)Nc1nc2c(s1)CCCC2`, the growth inhibition was inactive: -5.05%.
Take `CCC(Sc1nnc(-c2ccc(C)c(Cl)c2)n1CC)C(=O)Nc1nccs1` (configuration not stated): the growth inhibition is inactive: 5.37%.
On to `COC(=O)C1=C(CSc2nc3ccccc3o2)NC(=O)NC1c1cc(C)ccc1C` (configuration not stated), for which the growth inhibition is inactive: 14.1%.
As for `CC1CN(c2nc3c(c(=O)n(Cc4ccc(Cl)c(Cl)c4)c(=O)n3C)n2C)CC(C)O1` (configuration not stated), the figure is inactive: -5.27%; as for `Cc1onc(-c2ccccc2)c1C(=O)OCC(=O)c1ccccc1`, inactive: 1.87%; as for `CCOC(=O)c1ccc(-n2[nH]c(-c3ccccc3)cc2=O)cc1`, inactive: 6.72%.
`COc1ccc(-c2cc(C(=O)N3CCc4ccccc4C3)no2)cc1OC`: the growth inhibition is inactive: 1.02%.
In the case of `Cc1ccc2c(c1)c1c(n2CC(O)Cn2c(C)nc3ccccc32)/C(=N\O)CCC1` (configuration not stated), the growth inhibition was inactive: -3.7%.
For the compound `Cc1cc(NC(=O)COC(=O)C(Nc2ccc(C(F)(F)F)cc2Cl)C(C)C)no1` (configuration not stated), the growth inhibition is inactive: 7.37%.
In the case of `O=C(NCc1ccco1)c1sc(=S)n2c1[nH]c(=O)c1ccccc12`, the growth inhibition was inactive: -2.12%.
Take `Cc1nn(Cc2ccc(Cl)cc2)c(C)c1NC(=O)c1noc2c1CCCCC2`: the growth inhibition was inactive: -3.16%.
On to `CN(Cc1ccccc1)Cc1nc2c(c(=O)n(C)c(=O)n2C)n1CCCc1ccccc1`, for which the growth inhibition was inactive: -6.47%.
On to `CCOC(=O)c1sc(NC(=O)CSc2n[nH]c(-c3ccccc3)n2)c(C#N)c1C`, for which the growth inhibition is inactive: 4.26%.
For the compound `O=S(=O)(Nc1nc2ccccc2s1)c1ccc(Br)s1`, the growth inhibition was inactive: 15.3%.
Consider `CCOc1ccc(Nc2cc(C)nc(-n3nc(C)cc3C)n2)cc1`, for which the growth inhibition was inactive: 10.5%.
Take `Cc1cc(C)cc(-n2ccnc2SCC(=O)Nc2ccc3c(c2)OCCO3)c1`: the growth inhibition was inactive: -3.96%.
With `COc1ccc(NS(=O)(=O)c2ccc3oc(Nc4ccc5c(c4)OCCO5)nc3c2)cc1`, the growth inhibition is inactive: -5.81%.
Take `CC(Nc1ccc(Br)cn1)c1cc(Cl)ccc1O` (configuration not stated): the growth inhibition was inactive: 14.7%.
`COc1ccc2nc(NC(=O)C3COc4ccccc4O3)sc2c1` (configuration not stated): the growth inhibition was inactive: -7.38%.
With `Cc1cccc(OCCn2c(NC(=O)c3ccco3)nc3ccccc32)c1`, the growth inhibition is inactive: 7.25%.
As for `c1ccc(-c2nc(CSc3nnc(-c4cccs4)o3)cs2)cc1`, the figure is inactive: -5.14%; as for `O=C(Nc1nccs1)C(NS(=O)(=O)c1ccc(Br)s1)c1ccccc1` (configuration not stated), inactive: -8.7%.
For `CC1CC(N(C(=O)c2ccco2)c2ccccc2)c2ccccc2N1` (configuration not stated), the growth inhibition is inactive: 0.11%.
Take `O=C(c1cc2nc(-c3ccco3)cc(C(F)(F)F)n2n1)N1CCN(c2ccc(F)cc2)CC1`: the growth inhibition is inactive: -4.22%.
To `CN1/C(=C\C(=O)c2cccs2)Sc2ccccc21` belongs inactive: 4.81%; to `N#CC1=C(SCC(=O)NC23CC4CC(CC(C4)C2)C3)NC(=O)C(C#N)C12CCCCC2` (configuration not stated), active: 18.1%.
For `O=C1CN(C(=O)c2ccc(Br)o2)C(c2ccccc2)c2cc(Cl)ccc2N1` (configuration not stated), the growth inhibition was inactive: -0.14%.
`C=CCn1c(SCC(O)Cn2c3ccccc3c3ccccc32)nnc1-c1ccco1` (configuration not stated): the growth inhibition was inactive: -9.43%.
As to `N#Cc1nc(COc2ccc(F)cc2)oc1N1CCN(Cc2ccccc2)CC1`, the growth inhibition was inactive: -4.55%.
